Results reported in article PMC4891121.
Results are given in words; binding and its absence hold for the method and conditions named. Binding seen in cells or lysates may run through a third protein. Some results given as binding are weak or reduced against the parent protein; the word gives no strength.

The chains behind the UniProt entries cited, without tags or fusion partners.
UniProt Q86TM3: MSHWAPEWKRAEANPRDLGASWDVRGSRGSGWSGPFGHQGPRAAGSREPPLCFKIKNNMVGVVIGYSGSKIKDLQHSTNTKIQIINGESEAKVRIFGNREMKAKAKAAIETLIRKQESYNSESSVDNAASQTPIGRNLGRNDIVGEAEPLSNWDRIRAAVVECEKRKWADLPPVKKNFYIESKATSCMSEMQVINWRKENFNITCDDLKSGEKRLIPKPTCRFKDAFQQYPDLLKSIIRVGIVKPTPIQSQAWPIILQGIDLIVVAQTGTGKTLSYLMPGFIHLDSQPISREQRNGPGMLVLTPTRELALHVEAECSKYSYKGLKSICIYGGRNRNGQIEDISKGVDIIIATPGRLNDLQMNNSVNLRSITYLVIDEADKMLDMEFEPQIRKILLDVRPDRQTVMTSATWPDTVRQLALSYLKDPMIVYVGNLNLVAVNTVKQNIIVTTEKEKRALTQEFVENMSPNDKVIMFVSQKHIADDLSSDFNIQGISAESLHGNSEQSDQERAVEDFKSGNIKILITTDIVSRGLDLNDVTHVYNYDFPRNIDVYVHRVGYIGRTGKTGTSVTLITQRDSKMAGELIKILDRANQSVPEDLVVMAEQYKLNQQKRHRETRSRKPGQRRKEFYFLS

Legend:
[1] = target: HER2 (human (endogenous in Malme3M^R)) (UniProt P04626); experiment: co-IP; Malme3M^R cell lysates immunoprecipitated with the indicated antibody (2 μg/ml), then immunoblot; cells untreated, treated with IgG, cetuximab (10 μg/ml) or gefitinib (1 μM) for 24 h, or transfected with control or EGFR siRNA (10 nM, 48 h)
[2] = target: pEGFR^Y845 (human (endogenous in Malme3M^R)) (UniProt P00533); experiment: as above
[3] = target: HER2 (human (endogenous in Malme3M^R)) (UniProt P04626); experiment: co-IP; lysates of Malme3M^R cells treated with the indicated peptide (10 μM) for 48 h, immunoprecipitation and immunoblot
[4] = target: HER2 (human (endogenous in Malme3M^R)) (UniProt P04626); experiment: co-IP; tumor tissue lysates (RIPA buffer) of Malme3M^R xenografts in nude mice, scrambled siRNA, immunoprecipitation and immunoblot
[5] = target: T1, CAGE-derived ^269GTGKT^273 peptide (human); experiment: co-IP; immunoprecipitation of biotin-labeled GTGKT peptide; personal observations, not shown
T1 sequence (peptide, biotin-labeled in the immunoprecipitation (position not stated)): GTGKT

[6] = target: HER2 (human (endogenous in Malme3M^R)) (UniProt P04626); experiment: co-IP; lysates of Malme3M^R cells transfected with CAGE siRNA (10 nM, 48 h), immunoprecipitated with the indicated antibody (2 μg/ml), then immunoblot
[7] = target: HER2 (human (endogenous in Malme3M^R)) (UniProt P04626); experiment: condition: only in cells that stably express miR-217 (lower expression of CAGE and HER2); co-IP; lysates of Malme3M^R-miR-217 cells (stably express miR-217), immunoprecipitation and immunoblot
[8] = target: HER2 (human (endogenous in Malme3M^R)) (UniProt P04626); experiment: condition: only CAGE siRNA (100 nM) injected in vivo; co-IP; tumor tissue lysates (RIPA buffer) of Malme3M^R xenografts after in vivo down-regulation of CAGE (CAGE siRNA 100 nM via tail vein), immunoprecipitation and immunoblot
[9] = target: HER2 (human (endogenous in Malme3M^R)) (UniProt P04626); experiment: co-IP; lysates of Malme3M^R-miR-217 cells transfected with miR-217 inhibitor, immunoprecipitation and immunoblot

binding [1]: binds
binding [2]: binds
binding [3]: binds
binding [4]: binds
binding [5]: binds
binding [7]: no binding
binding [8]: no binding
binding [9]: binds
Substance: CAGE, a cancer/testis antigen (from UniProt Q86TM3 1-631)
binding [6]: no binding (condition: CAGE siRNA (10 nM))
